In the supplement of paper PMC11006884:
This is a selection; strong and weak results do not stand in their true shares. The data scatter; read single values as rough.

Amino acid sequences for entries named in this document (tags omitted). A change or cut given only in a name is not applied to a line headed by its entry.
UniProt Q92547, whole entry: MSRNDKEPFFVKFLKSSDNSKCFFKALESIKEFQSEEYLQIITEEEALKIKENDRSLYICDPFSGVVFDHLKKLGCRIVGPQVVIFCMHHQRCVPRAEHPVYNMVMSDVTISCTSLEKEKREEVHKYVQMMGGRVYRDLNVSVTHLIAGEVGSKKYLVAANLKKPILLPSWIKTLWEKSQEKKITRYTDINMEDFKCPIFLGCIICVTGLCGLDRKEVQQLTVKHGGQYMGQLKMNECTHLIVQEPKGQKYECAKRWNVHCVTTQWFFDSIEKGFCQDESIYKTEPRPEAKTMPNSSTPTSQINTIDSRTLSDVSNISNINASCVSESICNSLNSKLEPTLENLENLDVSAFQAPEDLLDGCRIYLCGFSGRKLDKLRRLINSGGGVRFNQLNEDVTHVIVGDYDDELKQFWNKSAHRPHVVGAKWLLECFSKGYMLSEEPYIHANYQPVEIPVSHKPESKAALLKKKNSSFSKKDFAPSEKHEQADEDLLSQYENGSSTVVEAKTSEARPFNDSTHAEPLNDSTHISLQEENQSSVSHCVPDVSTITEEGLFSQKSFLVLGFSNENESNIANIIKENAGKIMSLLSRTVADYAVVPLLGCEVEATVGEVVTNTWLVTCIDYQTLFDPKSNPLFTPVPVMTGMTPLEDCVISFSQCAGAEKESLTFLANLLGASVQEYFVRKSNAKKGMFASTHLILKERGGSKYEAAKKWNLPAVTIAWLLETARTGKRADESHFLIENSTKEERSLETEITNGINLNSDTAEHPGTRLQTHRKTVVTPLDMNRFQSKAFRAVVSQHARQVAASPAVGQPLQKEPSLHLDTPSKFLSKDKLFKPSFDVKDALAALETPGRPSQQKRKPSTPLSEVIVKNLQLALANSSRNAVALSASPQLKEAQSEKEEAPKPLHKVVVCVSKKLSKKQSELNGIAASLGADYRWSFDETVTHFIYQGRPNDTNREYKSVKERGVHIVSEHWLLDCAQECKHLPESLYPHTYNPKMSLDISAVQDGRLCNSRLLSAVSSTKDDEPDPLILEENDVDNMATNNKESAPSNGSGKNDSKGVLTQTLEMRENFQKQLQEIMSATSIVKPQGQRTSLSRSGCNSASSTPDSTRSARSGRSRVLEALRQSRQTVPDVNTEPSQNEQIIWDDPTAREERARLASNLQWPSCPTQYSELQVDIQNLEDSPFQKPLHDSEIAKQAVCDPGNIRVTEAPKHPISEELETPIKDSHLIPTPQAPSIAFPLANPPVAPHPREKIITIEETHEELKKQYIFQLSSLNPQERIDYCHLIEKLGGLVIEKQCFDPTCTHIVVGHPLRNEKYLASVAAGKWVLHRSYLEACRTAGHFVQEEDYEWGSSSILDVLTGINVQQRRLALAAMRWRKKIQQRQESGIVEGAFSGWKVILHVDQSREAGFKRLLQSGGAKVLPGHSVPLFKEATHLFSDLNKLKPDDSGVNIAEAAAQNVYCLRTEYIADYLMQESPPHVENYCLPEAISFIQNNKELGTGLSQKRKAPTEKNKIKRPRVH
UniProt Q92878: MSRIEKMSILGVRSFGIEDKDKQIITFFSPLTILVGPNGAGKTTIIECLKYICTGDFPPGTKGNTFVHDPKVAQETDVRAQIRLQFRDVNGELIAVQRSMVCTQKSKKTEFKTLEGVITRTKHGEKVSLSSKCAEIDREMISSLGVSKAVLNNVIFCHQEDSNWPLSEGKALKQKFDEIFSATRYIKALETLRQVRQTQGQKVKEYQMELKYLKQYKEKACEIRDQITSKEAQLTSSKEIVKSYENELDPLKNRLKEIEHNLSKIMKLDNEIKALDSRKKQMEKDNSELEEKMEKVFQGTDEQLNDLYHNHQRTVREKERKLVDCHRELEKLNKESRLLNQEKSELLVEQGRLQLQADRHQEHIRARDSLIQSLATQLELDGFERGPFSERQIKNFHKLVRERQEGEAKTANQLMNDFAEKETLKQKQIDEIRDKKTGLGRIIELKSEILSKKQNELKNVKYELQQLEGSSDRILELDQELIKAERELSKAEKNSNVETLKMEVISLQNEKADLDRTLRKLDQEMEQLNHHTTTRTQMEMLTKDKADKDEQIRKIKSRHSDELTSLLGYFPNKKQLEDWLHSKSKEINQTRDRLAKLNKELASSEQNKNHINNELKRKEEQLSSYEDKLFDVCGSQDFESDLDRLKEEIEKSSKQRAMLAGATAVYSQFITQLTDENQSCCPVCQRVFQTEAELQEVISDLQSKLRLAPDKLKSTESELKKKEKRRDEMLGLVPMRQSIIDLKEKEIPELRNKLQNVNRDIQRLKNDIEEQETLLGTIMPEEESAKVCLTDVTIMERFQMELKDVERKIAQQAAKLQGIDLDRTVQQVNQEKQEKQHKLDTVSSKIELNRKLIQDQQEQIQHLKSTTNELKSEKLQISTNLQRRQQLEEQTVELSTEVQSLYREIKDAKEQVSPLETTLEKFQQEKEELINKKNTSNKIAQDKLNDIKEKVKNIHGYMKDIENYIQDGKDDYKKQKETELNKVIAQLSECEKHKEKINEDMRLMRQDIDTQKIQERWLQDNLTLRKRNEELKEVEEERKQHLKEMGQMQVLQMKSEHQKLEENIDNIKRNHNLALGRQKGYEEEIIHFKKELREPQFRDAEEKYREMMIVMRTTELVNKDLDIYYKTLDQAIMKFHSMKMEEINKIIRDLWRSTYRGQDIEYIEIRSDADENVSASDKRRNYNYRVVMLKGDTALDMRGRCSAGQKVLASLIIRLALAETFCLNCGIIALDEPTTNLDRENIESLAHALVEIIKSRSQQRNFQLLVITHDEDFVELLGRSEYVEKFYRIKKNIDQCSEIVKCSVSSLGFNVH
UniProt Q96HC4: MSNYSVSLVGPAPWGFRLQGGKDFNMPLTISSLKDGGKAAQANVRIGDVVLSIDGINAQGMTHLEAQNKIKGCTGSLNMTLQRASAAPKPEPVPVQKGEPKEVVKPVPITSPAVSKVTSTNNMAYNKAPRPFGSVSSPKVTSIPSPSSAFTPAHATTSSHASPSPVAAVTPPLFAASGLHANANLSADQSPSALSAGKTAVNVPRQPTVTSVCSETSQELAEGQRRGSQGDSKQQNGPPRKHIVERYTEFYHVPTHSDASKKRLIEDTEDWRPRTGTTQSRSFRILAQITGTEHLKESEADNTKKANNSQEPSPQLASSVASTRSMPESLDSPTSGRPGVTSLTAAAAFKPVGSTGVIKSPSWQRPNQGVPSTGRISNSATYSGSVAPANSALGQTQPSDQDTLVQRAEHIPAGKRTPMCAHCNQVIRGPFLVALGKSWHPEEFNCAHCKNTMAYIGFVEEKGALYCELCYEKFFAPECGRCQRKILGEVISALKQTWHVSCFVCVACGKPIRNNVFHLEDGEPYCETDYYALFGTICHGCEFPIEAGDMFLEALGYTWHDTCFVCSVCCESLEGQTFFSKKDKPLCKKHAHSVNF
UniProt Q96EB1: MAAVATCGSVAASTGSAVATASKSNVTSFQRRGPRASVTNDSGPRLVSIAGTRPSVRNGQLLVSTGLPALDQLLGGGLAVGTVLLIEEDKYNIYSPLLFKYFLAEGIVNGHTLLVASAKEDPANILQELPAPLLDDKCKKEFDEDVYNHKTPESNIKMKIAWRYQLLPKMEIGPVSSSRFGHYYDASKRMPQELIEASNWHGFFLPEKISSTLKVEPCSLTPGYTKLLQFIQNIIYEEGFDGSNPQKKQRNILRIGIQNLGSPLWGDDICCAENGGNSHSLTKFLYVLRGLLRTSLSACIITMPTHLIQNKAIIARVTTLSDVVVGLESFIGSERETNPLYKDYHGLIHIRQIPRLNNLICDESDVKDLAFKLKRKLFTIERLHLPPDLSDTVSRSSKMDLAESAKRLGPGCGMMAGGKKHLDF
UniProt Q93008, whole entry, looked up: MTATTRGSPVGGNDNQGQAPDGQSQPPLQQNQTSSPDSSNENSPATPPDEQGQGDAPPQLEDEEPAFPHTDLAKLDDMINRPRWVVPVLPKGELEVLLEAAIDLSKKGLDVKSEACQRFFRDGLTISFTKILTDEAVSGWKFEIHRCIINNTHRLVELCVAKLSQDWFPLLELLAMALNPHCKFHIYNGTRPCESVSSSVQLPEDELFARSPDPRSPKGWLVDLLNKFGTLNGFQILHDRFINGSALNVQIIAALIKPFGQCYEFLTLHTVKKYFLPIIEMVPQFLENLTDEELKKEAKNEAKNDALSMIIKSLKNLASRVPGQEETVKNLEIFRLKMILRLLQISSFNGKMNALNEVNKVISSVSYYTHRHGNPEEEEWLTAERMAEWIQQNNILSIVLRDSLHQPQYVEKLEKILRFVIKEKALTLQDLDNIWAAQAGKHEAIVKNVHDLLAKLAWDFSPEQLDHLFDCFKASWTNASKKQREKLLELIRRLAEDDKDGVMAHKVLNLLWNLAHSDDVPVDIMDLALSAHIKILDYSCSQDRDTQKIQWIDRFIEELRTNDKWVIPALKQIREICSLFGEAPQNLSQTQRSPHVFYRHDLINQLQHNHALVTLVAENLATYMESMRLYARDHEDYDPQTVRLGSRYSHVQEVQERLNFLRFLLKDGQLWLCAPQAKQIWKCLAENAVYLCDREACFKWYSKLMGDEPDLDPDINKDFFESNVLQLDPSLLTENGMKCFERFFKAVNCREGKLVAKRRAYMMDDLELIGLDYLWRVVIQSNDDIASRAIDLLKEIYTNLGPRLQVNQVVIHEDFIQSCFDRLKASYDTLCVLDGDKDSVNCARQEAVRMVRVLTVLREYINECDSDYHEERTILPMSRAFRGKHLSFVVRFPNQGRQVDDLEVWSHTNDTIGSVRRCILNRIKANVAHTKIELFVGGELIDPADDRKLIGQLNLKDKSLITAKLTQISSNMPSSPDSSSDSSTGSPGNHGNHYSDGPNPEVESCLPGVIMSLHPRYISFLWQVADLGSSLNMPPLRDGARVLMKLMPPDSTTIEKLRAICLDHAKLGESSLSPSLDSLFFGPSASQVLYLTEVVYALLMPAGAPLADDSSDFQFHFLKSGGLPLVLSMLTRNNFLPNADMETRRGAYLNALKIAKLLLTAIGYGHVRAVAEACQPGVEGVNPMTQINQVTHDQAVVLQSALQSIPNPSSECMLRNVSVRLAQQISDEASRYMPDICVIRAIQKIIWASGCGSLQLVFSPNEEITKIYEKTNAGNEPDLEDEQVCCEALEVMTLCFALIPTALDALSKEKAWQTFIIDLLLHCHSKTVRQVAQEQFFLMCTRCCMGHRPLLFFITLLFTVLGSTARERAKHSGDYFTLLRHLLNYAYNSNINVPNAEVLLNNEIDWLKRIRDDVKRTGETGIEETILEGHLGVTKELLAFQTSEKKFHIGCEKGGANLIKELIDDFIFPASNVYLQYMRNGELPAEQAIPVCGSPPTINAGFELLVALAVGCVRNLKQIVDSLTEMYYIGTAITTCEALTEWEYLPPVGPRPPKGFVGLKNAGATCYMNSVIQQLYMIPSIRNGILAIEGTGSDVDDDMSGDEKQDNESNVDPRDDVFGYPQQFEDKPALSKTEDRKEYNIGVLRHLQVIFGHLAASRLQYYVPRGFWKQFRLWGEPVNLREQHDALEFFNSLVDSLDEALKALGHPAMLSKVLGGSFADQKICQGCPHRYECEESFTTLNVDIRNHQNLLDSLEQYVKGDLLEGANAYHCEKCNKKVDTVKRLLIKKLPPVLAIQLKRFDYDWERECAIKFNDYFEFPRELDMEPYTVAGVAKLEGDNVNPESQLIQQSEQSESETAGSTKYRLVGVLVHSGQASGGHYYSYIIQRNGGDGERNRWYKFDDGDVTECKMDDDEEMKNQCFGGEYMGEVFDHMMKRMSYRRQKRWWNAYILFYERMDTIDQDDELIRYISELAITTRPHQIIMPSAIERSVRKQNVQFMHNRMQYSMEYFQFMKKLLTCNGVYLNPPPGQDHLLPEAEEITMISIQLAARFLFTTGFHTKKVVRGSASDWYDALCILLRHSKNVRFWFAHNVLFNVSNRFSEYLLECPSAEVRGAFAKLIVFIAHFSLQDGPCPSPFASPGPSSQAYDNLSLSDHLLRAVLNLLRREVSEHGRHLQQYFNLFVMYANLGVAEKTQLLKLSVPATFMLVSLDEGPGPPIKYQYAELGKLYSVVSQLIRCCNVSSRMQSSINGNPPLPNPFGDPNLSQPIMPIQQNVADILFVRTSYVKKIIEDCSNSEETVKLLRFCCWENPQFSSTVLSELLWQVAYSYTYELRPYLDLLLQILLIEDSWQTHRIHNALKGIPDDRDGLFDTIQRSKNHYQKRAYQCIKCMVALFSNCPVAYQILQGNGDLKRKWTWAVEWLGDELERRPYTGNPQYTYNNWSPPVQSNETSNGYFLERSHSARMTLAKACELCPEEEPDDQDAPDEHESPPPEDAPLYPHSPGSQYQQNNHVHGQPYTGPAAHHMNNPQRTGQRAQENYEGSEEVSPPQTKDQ
UniProt Q96B54: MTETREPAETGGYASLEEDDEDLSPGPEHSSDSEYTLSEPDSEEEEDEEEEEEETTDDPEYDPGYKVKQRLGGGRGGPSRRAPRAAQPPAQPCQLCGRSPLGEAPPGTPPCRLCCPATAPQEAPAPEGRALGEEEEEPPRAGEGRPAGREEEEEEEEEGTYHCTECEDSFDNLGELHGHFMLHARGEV

The targets below were run with COC(=O)/C=C/c1ccccc1 [methyl cinnamate] (assay: log2 ratio of iodoacetamide-alkyne labeling of the cysteine site, DMSO over compound (competition); higher = stronger covalent engagement of the cysteine by the compound, active = 1 or more). Conditions: 500 µM; treatment time 1 h; system: HEK293T cell lysate.
How it was run: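 HEK293T lysate at 2 mg/mL was treated with vehicle or electrophile (500 µM) for 1 h at ambient temperature, then labelled with iodoacetamide alkyne (1 h), clicked to sCIP-TMT reagents, pooled, digested with trypsin overnight at 37 °C, enriched on streptavidin and eluted with acid. Peptides were analysed by Orbitrap Eclipse LC-MS/MS with FAIMS and quantified in FragPipe, using duplicate channels and three replicates, with cysteines quantified in only one replicate excluded. The log2 competition ratio for each cysteine is the mean control-channel reporter intensity divided by the mean compound-channel reporter intensity.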

log2 ratio of iodoacetamide-alkyne labeling, inactive:
FUBP1 C148 (UniProt Q96AE4) 0.0915
UniProt Q92615_C633 0.406
GBF1 C592 (UniProt Q92538) 0.237
UniProt Q93015_C250 0.0124
TOPBP1 C1166 (UniProt Q92547) -0.0356
UniProt Q92879_C150 0.00913
UniProt Q96AX9_C323 0.359
ZC3HAV1L C125 (UniProt Q96H79) 0.0478
RAD50 C1302 (UniProt Q92878) 0.24
TAF15 C360 (UniProt Q92804) 0.208
PHF3 C627 (UniProt Q92576) 0.234
SNF8 C72 (UniProt Q96H20) 0.3
PDLIM5 C446 (UniProt Q96HC4) 0.227
SYMPK C859 (UniProt Q92797) -0.225
SMARCC1 C462 (UniProt Q92922) 0.286
RAD50 C102 (UniProt Q92878) 0.715
SNX19 C368 (UniProt Q92543) 0.237
UniProt Q96BR5_C24 0.138
EXOSC8 C89 (UniProt Q96B26) 0.0125
ELP4 C361 (UniProt Q96EB1) 0.0848
UniProt Q92888_C815 0.171
UniProt Q92616_C2558 0.279
USP9X C673 (UniProt Q93008) 0.195
ARHGEF2 C715 (UniProt Q92974) 0.177
GBF1 C685 (UniProt Q92538) -0.131
CMBL C10 (UniProt Q96DG6) -0.0267
HSPH1 C310 (UniProt Q92598) 0.133
NT5C3B C210 (UniProt Q969T7) 0.579
DPF2 C53 (UniProt Q92785) -0.0418
GPKOW C394 (UniProt Q92917) 0.198
UniProt Q92879_C61 0.129
USP9X C577 (UniProt Q93008) 0.0975
USP9X C1174 (UniProt Q93008) 0.0539
UniProt Q92841_C277 0.274
ZNF428 C111 (UniProt Q96B54) 0.213
AKAP1 C102 (UniProt Q92667) -0.0189
SIPA1 C732 (UniProt Q96FS4) 0.117
PHF3 C1771 (UniProt Q92576) 0.324

No new results follow: an excerpt of the list.
log2 ratio of iodoacetamide-alkyne labeling, inactive:
SMARCC1 C462 (UniProt Q92922) 0.286
RAD50 C102 (UniProt Q92878) 0.715
SNX19 C368 (UniProt Q92543) 0.237
